PubChem BioAssay AID1224828 | NIAID | 2016
Assay: 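Knock-downs that increase or decrease LPS-induced p65 nuclear translocation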 (primary screen). System: mouse RAW264.7 G9 macrophage reporter cells (GFP-p65, Tnf promoter-mCherry). Reagents: siRNA pool against mouse genes, 100 nM. Time to read-out: 2 days siRNA transfection, then 40 min LPS before fixation. Conditions: LPS (Salmonella minnesota R595) at 10 ng/ml. Read-out: 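Microscopy ratio of nuclear to perinuclear-ring GFP-p65 signal, scaled to the plate median; gene score is the average of two replicate robust z-scores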. Direction: p65 translocation robust z-score: higher = more nuclear NF-kappaB p65 after LPS than the plate median; nuclear/cytoplasmic p65 ratio: higher = more nuclear NF-kappaB p65. Hit rule: 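Active if robust z is above 3.3 (negative regulators) or below -1.56, the Tlr4 control median (positive regulators); activity score 50 or more; control wells not called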. Meaning of the calls: active = hit (p65 shift raised or lowered); inactive = no clear change.
Here is an unselected part of about 17,000 deposited reagents. 762 of all reagents (4.5%) were called active. 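Active calls include both raised and lowered p65 entry, mostly lowered; wells with fewer than 50 cells lack a z-score.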 Raw values are not corrected between plates. Reagents against one gene are numbered here.

Chrdl1
- p65 translocation robust z-score: 0.07
- nuclear/cytoplasmic p65 ratio, rep 1: 1.6
- nuclear/cytoplasmic p65 ratio, rep 2: 1.79
- low cell count flag: enough cells to score
- Outcome: inactive

Ermard #1
- p65 translocation robust z-score: -1.4
- nuclear/cytoplasmic p65 ratio, rep 1: 1.5
- nuclear/cytoplasmic p65 ratio, rep 2: 1.16
- low cell count flag: enough cells to score
- Outcome: inactive

Ermard #2
- nuclear/cytoplasmic p65 ratio, rep 1: 1.73
- nuclear/cytoplasmic p65 ratio, rep 2: 1.9
- low cell count flag: fewer than 50 cells per well; well left out of scoring
- Outcome: inactive

Fndc7
- p65 translocation robust z-score: 0.75
- nuclear/cytoplasmic p65 ratio, rep 1: 1.58
- nuclear/cytoplasmic p65 ratio, rep 2: 1.44
- low cell count flag: enough cells to score
- Outcome: inactive

Pcbp3
- nuclear/cytoplasmic p65 ratio, rep 1: 1.31
- nuclear/cytoplasmic p65 ratio, rep 2: 1.15
- low cell count flag: fewer than 50 cells per well; well left out of scoring
- Outcome: inactive

Ticam2
- p65 translocation robust z-score: 0.05
- nuclear/cytoplasmic p65 ratio, rep 1: 1.37
- nuclear/cytoplasmic p65 ratio, rep 2: 1.2
- low cell count flag: enough cells to score
- Outcome: inactive

Fbxo38
- p65 translocation robust z-score: -0.87
- nuclear/cytoplasmic p65 ratio, rep 1: 1.43
- nuclear/cytoplasmic p65 ratio, rep 2: 1.38
- low cell count flag: enough cells to score
- Outcome: inactive

Rbbp7
- p65 translocation robust z-score: 0.02
- nuclear/cytoplasmic p65 ratio, rep 1: 1.5
- nuclear/cytoplasmic p65 ratio, rep 2: 1.54
- low cell count flag: enough cells to score
- Outcome: inactive

Or2t6
- p65 translocation robust z-score: -0.69
- nuclear/cytoplasmic p65 ratio, rep 1: 1.41
- nuclear/cytoplasmic p65 ratio, rep 2: 1.39
- low cell count flag: enough cells to score
- Outcome: inactive

Ercc5
- p65 translocation robust z-score: -0.2
- nuclear/cytoplasmic p65 ratio, rep 1: 1.41
- nuclear/cytoplasmic p65 ratio, rep 2: 1.37
- low cell count flag: enough cells to score
- Outcome: inactive

Zfp275
- p65 translocation robust z-score: 0.53
- nuclear/cytoplasmic p65 ratio, rep 1: 1.44
- nuclear/cytoplasmic p65 ratio, rep 2: 1.34
- low cell count flag: enough cells to score
- Outcome: inactive

Enpp4
- p65 translocation robust z-score: -0.42
- nuclear/cytoplasmic p65 ratio, rep 1: 1.33
- nuclear/cytoplasmic p65 ratio, rep 2: 1.3
- low cell count flag: enough cells to score
- Outcome: inactive

Mettl15
- p65 translocation robust z-score: -0.36
- nuclear/cytoplasmic p65 ratio, rep 1: 1.45
- nuclear/cytoplasmic p65 ratio, rep 2: 1.4
- low cell count flag: enough cells to score
- Outcome: inactive

Or52e2
- nuclear/cytoplasmic p65 ratio, rep 1: 1.49
- nuclear/cytoplasmic p65 ratio, rep 2: 1.27
- low cell count flag: fewer than 50 cells per well; well left out of scoring
- Outcome: inactive

Iqgap1
- p65 translocation robust z-score: 1.31
- nuclear/cytoplasmic p65 ratio, rep 1: 1.61
- nuclear/cytoplasmic p65 ratio, rep 2: 1.59
- low cell count flag: enough cells to score
- Outcome: inactive

Pcdhb3
- p65 translocation robust z-score: -0.09
- nuclear/cytoplasmic p65 ratio, rep 1: 1.5
- nuclear/cytoplasmic p65 ratio, rep 2: 1.34
- low cell count flag: enough cells to score
- Outcome: inactive

Rora
- p65 translocation robust z-score: -2.5
- nuclear/cytoplasmic p65 ratio, rep 1: 1.15
- nuclear/cytoplasmic p65 ratio, rep 2: 1.18
- low cell count flag: enough cells to score
- Outcome: active

Rnf216
- p65 translocation robust z-score: -0.63
- nuclear/cytoplasmic p65 ratio, rep 1: 1.44
- nuclear/cytoplasmic p65 ratio, rep 2: 1.28
- low cell count flag: enough cells to score
- Outcome: inactive

Sh3gl3
- p65 translocation robust z-score: -0.46
- nuclear/cytoplasmic p65 ratio, rep 1: 1.54
- nuclear/cytoplasmic p65 ratio, rep 2: 1.43
- low cell count flag: enough cells to score
- Outcome: inactive

Gfra2
- p65 translocation robust z-score: -0.84
- nuclear/cytoplasmic p65 ratio, rep 1: 1.52
- nuclear/cytoplasmic p65 ratio, rep 2: 1.31
- low cell count flag: enough cells to score
- Outcome: inactive

Gypa
- p65 translocation robust z-score: 0.85
- nuclear/cytoplasmic p65 ratio, rep 1: 1.77
- nuclear/cytoplasmic p65 ratio, rep 2: 1.67
- low cell count flag: enough cells to score
- Outcome: inactive

Copied from the list.
Entry for Or2t6 under “nuclear/cytoplasmic p65 ratio, rep 2”: 1.39
Pcdhb3, p65 translocation robust z-score: -0.09
